Measured values as given in PMC6106057.
These are yes or no findings as the source states them, for the method shown. For part of these data: In cells and extracts the contact can be indirect. Some entries that bind do so weakly or less than the wild type.

Amino acid sequences for entries named in this document (tags omitted).
UniProt Q9HGY5: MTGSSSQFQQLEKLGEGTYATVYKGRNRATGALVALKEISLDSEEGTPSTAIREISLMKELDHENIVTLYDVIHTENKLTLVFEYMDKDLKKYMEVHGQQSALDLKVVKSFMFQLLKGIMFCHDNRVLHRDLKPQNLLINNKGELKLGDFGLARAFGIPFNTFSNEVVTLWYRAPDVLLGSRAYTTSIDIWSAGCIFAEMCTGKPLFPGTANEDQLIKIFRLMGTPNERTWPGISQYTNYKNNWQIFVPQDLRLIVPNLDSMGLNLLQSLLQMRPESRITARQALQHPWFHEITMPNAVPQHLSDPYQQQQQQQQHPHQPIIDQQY

Key:
[1] = target: Pcl5 bait (pC2HB-Pcl5) (Candida albicans) (UniProt Q5AK08); test: two-hybrid; C2H, bait and prey plasmids cotransformed into diploid SC2H3; 5-fold dilution spot assay on SC-Met-His (lower expression from the MET3 promoter), 30°C
[2] = target: Pcl5 bait (pC2HB-Pcl5) (Candida albicans) (UniProt Q5AK08); test: two-hybrid; C2H, bait and prey plasmids cotransformed into diploid SC2H3; 5-fold dilution spot assay on SC-Met-Cys-His (strong expression from the MET3 promoter), 30°C
[3] = target: LexA-HA-Pho85 (Pho85 bait, pC2HB-Pho85) (Candida albicans) (UniProt Q9HGY5); test: two-hybrid; C2H, step 2 of the validation protocol: bait and prey plasmids cotransformed into diploid SC2H3, growth on selective medium (SC-Met-Cys-His and/or SC-Met-His; which one is not told for these pairs)
[4] = target: LexA-HA-Pho85 (Pho85 bait, pC2HB-Pho85) (Candida albicans) (UniProt Q9HGY5); test: co-IP; lysate of SC2H3 with bait and prey plasmids, 500 µg protein, anti-HA magnetic beads overnight at 4°C, blot with anti-FLAG M2-HRP
[5] = target: LexA-HA-Pho85 (Pho85 bait, pC2HB-Pho85) (Candida albicans) (UniProt Q9HGY5); test: two-hybrid; C2H, bait and prey plasmids cotransformed into diploid SC2H3; 5-fold dilution spot assay on SC-Met-His (lower expression from the MET3 promoter), 30°C
[6] = target: LexA-HA-Pho85 (Pho85 bait, pC2HB-Pho85) (Candida albicans) (UniProt Q9HGY5); test: two-hybrid; C2H, bait and prey plasmids cotransformed into diploid SC2H3; 5-fold dilution spot assay on SC-Met-Cys-His (strong expression from the MET3 promoter), 30°C

In the case of “Pho85 prey (pC2HP-Pho85) (from UniProt Q9HGY5 1-326)”, the binding [1] is reported as “binds” and the binding [2] is reported as “binds”.

For “Pcl7 prey (from UniProt A0A1D8PDW6 1-684)”, the binding [3] was “binds”.

“VP16-FLAG-Pcl5 (Pcl5 prey, pC2HP-Pcl5) (from UniProt Q5AK08 1-304)” was tested, and the binding [4] was “binds”, the binding [5] was “binds” and the binding [6] was “binds”.
